The results in this text go back to patent US8603987 (GALAXY BIOTECH, dated 2013).

Sequences of proteins named here, by UniProt entry; tags and fusion partners are left off. A change or cut given only in a name is not applied to a line headed by its entry. A line that says so, or that is headed by a name, gives the form on record, which may keep a tag or linker.
Mouse FGFR2(beta)IIIb-Fc protein (R&D Systems Catalog #708-MF) (P21803, form named): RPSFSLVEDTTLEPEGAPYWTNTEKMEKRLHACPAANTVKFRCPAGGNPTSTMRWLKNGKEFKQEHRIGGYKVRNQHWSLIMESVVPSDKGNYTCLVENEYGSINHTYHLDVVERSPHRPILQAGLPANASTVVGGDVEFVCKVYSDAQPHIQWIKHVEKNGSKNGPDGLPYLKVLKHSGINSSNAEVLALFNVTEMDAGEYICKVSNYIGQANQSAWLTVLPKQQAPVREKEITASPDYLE

Results are given in words; binding and its absence hold for the method and conditions named. Some binding calls cover weakened binding; strength is not graded here.

This assay addresses Mouse FGFR2(beta)IIIb-Fc protein (R&D Systems Catalog #708-MF) (mouse) (UniProt P21803). Description: ELISA, FGFR2IIIb-Fc captured by anti-human IgG-Fc. In general terms: ELISA stands for enzyme-linked immunosorbent assay.

B1: GAL-FR22 (antibody, V domains shown)
VH: QVQLKQSGPGLVQPSQSLSITCTVSGFSLTSFGVHWVRQSPGKGLEWLGVIWSGGSTDYNADFRSRLSISKDNSKSQIFFKMNSLQPDDTAIYYCANFYYGYDDYVMDYWGQGTSVTVSS
VL: DIQMTQSPSSLSASLGGRVTITCKASQDIKNYIAWYQHKPGKSPRLLIHYTSTLQPGVPSRFSGSGSGRDYSFSISNLEPEDIATYYCLQYDDLYMFGGGTKLDIK
notes: Mouse monoclonal antibody from a hybridoma; also called GAL-FG22; ATCC PTA-9587
Regarding B1, the binding entry is given as “binds”.

B2: GAL-FR21 (antibody, V domains shown)
VH: QVQLQQPGAEVVKPGASVKMSCKASGYIFTTYNVHWVKQTPGQGLEWIGSIYPDNGDTSYNQNFKGKATLTADKSSSTAYIQLSSLTSEDSAVYYCARGDFAYWGQGTLVTVSV
VL: NIVMTQSPKSMSMSVGDRVSITCKASQGVSNDVAWYQKKPGQSPKLLIYSASYRYTGVPDRFTGSGSGTDFTFTISNVQAEDLAVYYCQQHSTTPYTFGGGTKLEIK
notes: Mouse monoclonal antibody from a hybridoma; also called mouse GAL-FR21; ATCC PTA-9586
For the molecule B2, the binding result is recorded as “binds”.
